Patent publication US20140303188A1, “Substituted Cyclopenta Pyrimidine Bicyclic Compounds Having Antitmitotic And/Or Antitumor Activity And Methods Of Use Thereof” (DUQUESNE UNIVERSITY OF THE HOLY SPIRIT, priority 2008, published 2014)
At least one compound was matched to its structure with a doubt left.

Legend:
purified tubulin = test: inhibition of tubulin assembly; type: biochemical; settings: for IC50: read-out: Inhibition of tubulin assembly IC50 ± SD
Experimental: The effects of designed compounds 10-14 on the polymerization of purified tubulin were evaluated. This allows for the study of the direct interaction of the compounds with their intracellular target. The ability of these compounds to bind to the colchicine site on tubulin was evaluated by measuring inhibition of [^3H]colchicine binding to tubulin. […] It is therefore likely that 13 binds in the colchicine site.

[1] = tested on: colchicine site on tubulin; test: inhibition of [3H]colchicine binding to tubulin
Experimental: This allows for the study of the direct interaction of the compounds with their intracellular target. The ability of these compounds to bind to the colchicine site on tubulin was evaluated by measuring inhibition of [^3H]colchicine binding to tubulin.

SMILES	IC50 (purified tubulin)	inhibitory activity on tubulin assembly in words (purified tubulin; 20 μM concentration)	Inhibition of colchicine binding % Inhibition ± SD ([1]; 1 μM inhibitor)	Inhibition of colchicine binding % Inhibition ± SD ([1]; 5 μM inhibitor)
COc1ccc2c(N(C)c3ncnc4c3CCC4)cccc2c1 [Compound 10]	> 20000 nM	–	–	–
COc1ccc2c(N(C)c3nc(C)nc4c3CCC4)cccc2c1 [Compound 11, N,2-dimethyl-N-(6′-methoxynaphthyl-1′-amino)-cyclopenta[d]pyrimidin-4-amine]	> 20000 nM	partial inhibitory activity	–	–
COc1cccc2cc(N(C)c3ncnc4c3CCC4)ccc12 [Compound 12]	1200 ± 40 nM	–	77 ± 1%	93 ± 0.6%
COc1cccc2cc(N(C)c3nc(C)nc4c3CCC4)ccc12 [Compound 13, N,2-dimethyl-N-(5′-methoxynaphthyl-2′-amino)-cyclopenta[d]pyrimidin-4-amine]	980 ± 40 nM	–	86 ± 0.7%	98 ± 0.3%
COc1ccc(N(C)c2nc(C)nc3c2CCC3)c2ccccc12 [Compound 14]	1400 ± 7 nM	–	–	72 ± 0.6%
